Reference: PubChem BioAssay AID686937 (Drosophila RNAi Screening Center, 2013)

Assay: 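Genes in the fly needed for secretion of protein constitutively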 (primary screen)
Cells: Drosophila S2 cells expressing secreted horseradish peroxidase
Reagent: long dsRNA against Drosophila genes
Time to read-out: about 5.5 days (5 days dsRNA, then 12 h reporter induction)
Treatment: reporter expression induced after 5 days of dsRNA, read 12 h later; inducer not stated
Measurement: 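After 5 days of dsRNA and 12 h of reporter induction, medium peroxidase read by chemiluminescence and scored as per-plate z-score; higher values mean more reporter released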
Reading the numbers: z-score: higher = more reporter secreted into medium
In all, the deposit lists about 23,000 reagents; below is a random part of those that have a named target and a result. 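Reduced-secretion tags in replicate 1 do not always agree with the z-scores; no criterion for assigning the tags was given.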 Reagents against one gene are numbered here. Names joined by + are all predicted targets of the reagent. Not given: the amount of reagent.

| gene | reagent | z-score, replicate 1 | z-score, replicate 2 | z-score, replicate 3 | z-score, replicate 4 | phenotype, replicate 1 |
| --- | --- | --- | --- | --- | --- | --- |
| Fs | 1 | 0.58 | 0.32 | – | – | – |
| Fs | 2 | -0.04 | 0.13 | – | – | – |
| SecCl | 1 | -0.12 | 0.04 | – | – | – |
| Lrpprc2 | 1 | -0.42 | -0.19 | – | – | – |
| S-Lap8 | 1 | 0.05 | 0.24 | 0.34 | 0.32 | – |
| S-Lap8 | 2 | 0.24 | -0.72 | – | – | – |
| CG17187 | 1 | -0.23 | -1.4 | – | – | – |
| gl | 1 | 0.32 | 0.54 | – | – | – |
| Tep3 | 1 | -0.05 | 0.31 | – | – | – |
| CG33514 | 1 | 0.32 | -0.37 | -0.81 | 0.04 | – |
| CG33514 | 2 | 0.19 | 0.4 | – | – | – |
| CG33514 | 3 | -0.61 | -0.21 | – | – | – |
| aux | 1 | 0.2 | 0.34 | – | – | – |
| inaE | 1 | 0.57 | 0.63 | – | – | – |
| inaE | 2 | 0.2 | 0.55 | – | – | – |
| inaE | 3 | 0.53 | 0.53 | -0.39 | -0.61 | – |
| inaE | 4 | 0.45 | 0.18 | – | – | – |
| CG30010 | 1 | -0.16 | – | – | – | – |
| CG14052 | 1 | -0.1 | -0.53 | – | – | – |
| CG14052 | 2 | 0.53 | 0.56 | – | – | – |
| ppk23 | 1 | 0.02 | -0.38 | – | – | – |
| CG6770 | 1 | 0.2 | -0.03 | 0.46 | -0.02 | – |
| Vps2 | 1 | -3.3 | -4.18 | – | – | reduced secretion |
| Scgbeta | 1 | 0.13 | 0.62 | – | – | – |
| CG7460 | 1 | 0.41 | 0.36 | – | – | – |
| CtsK2 | 1 | 0.27 | 0.41 | – | – | – |
| AOX1 | 1 | 0.19 | 0.29 | – | – | – |
| Grl36b | 1 | 0.34 | 0.2 | – | – | – |
| ras | 1 | 0.16 | -0.61 | – | – | – |
| didum | 1 | 0.35 | 0.31 | – | – | – |
| CG31253 + CG31131 | 1 | -0.36 | 0.45 | – | – | – |
| CG18508 | 1 | 0.31 | 0.41 | – | – | – |
| Prp19 | 1 | -2.4 | -1.16 | – | – | reduced secretion |
| ClpX | 1 | 0.52 | 0.53 | – | – | – |
| wge | 1 | 0.04 | 0.12 | – | – | – |
| wge | 2 | 0.37 | 0.28 | – | – | – |
| RpS14a | 1 | -1.71 | -2.82 | – | – | reduced secretion |
| GluRIIE | 1 | -0.17 | 0.33 | – | – | – |
| CG5909 | 1 | 0.38 | 0.35 | – | – | – |
| CG13036 (retired record) | 1 | 0.24 | 0.09 | – | – | – |
| CG11986 | 1 | 0.17 | 0.27 | – | – | – |
| smg | 1 | 0.03 | 0.09 | – | – | – |
| CG31817 | 1 | -0.16 | 0.16 | – | – | – |
| CG31817 | 2 | 0.65 | -0.25 | 0.31 | -0.23 | – |
| CG31817 | 3 | -0.09 | 0.78 | – | – | – |
| Send1 | 1 | 0.2 | 0.12 | – | – | – |
| CG12438 | 1 | 0.5 | 0.44 | – | – | – |

13 of these entries in another layout.
Tep3 → z-score, replicate 1 = -0.05; z-score, replicate 2 = 0.31
CG33514 #1 → z-score, replicate 1 = 0.32; z-score, replicate 2 = -0.37; z-score, replicate 3 = -0.81; z-score, replicate 4 = 0.04
CG33514 #2 → z-score, replicate 1 = 0.19; z-score, replicate 2 = 0.4
CG33514 #3 → z-score, replicate 1 = -0.61; z-score, replicate 2 = -0.21
aux → z-score, replicate 1 = 0.2; z-score, replicate 2 = 0.34
inaE #1 → z-score, replicate 1 = 0.57; z-score, replicate 2 = 0.63
inaE #2 → z-score, replicate 1 = 0.2; z-score, replicate 2 = 0.55
inaE #3 → z-score, replicate 1 = 0.53; z-score, replicate 2 = 0.53; z-score, replicate 3 = -0.39; z-score, replicate 4 = -0.61
inaE #4 → z-score, replicate 1 = 0.45; z-score, replicate 2 = 0.18
CG30010 → z-score, replicate 1 = -0.16
CG14052 #1 → z-score, replicate 1 = -0.1; z-score, replicate 2 = -0.53
CG14052 #2 → z-score, replicate 1 = 0.53; z-score, replicate 2 = 0.56
ppk23 → z-score, replicate 1 = 0.02; z-score, replicate 2 = -0.38

The results go on:
| gene | reagent | z-score, replicate 1 | z-score, replicate 2 | z-score, replicate 3 | z-score, replicate 4 | phenotype, replicate 1 |
| --- | --- | --- | --- | --- | --- | --- |
| CG7514 | 1 | 0.21 | 0.23 | – | – | – |
| bon | 1 | 0.24 | 0.37 | – | – | – |
| CG11563 | 1 | 0.52 | 0.31 | – | – | – |
| fal | 1 | 0.25 | 0.44 | – | – | – |
| Ufc1 | 1 | 0.17 | 0.13 | – | – | – |
| CG32633 | 1 | 0.4 | -0.2 | – | – | – |
| Grx1 | 1 | -0.69 | -1.19 | – | – | – |
| Dys | 1 | 0.4 | 0.64 | – | – | – |
| Dys | 2 | -0.28 | 0.16 | – | – | – |
| Dys | 3 | 0.41 | 0.57 | – | – | – |
| Dys | 4 | 0.28 | 0.33 | – | – | – |
| Dys | 5 | 0.28 | 0.14 | – | – | – |
| Dys | 6 | 0.24 | 0.33 | – | – | – |
| Dys | 7 | 0.2 | 0.24 | – | – | – |
| CG7668 | 1 | 0.23 | 0.04 | – | – | – |
| Ser8 | 1 | 0.29 | 0.23 | – | – | – |
| Xpac | 1 | 0.37 | -0.15 | – | – | – |
| BHD | 1 | 0.2 | 0.31 | – | – | – |
| BHD | 2 | -0.68 | -0.52 | – | – | – |
| CG31668 | 1 | 2.68 | 0.12 | – | – | – |
| Acp29AB | 1 | 0.04 | -0.34 | – | – | – |
| CG30222 | 1 | -0.61 | -1.22 | – | – | – |
| CG30222 | 2 | -0.07 | 0.43 | – | – | – |
| CG30274 | 1 | 0.26 | 0.02 | – | – | – |
| Xrp1 | 1 | -2.53 | -3.35 | – | – | reduced secretion |
| Xrp1 | 2 | 0.44 | 0.58 | – | – | – |
| CG14868 | 1 | -1.49 | -1.02 | – | – | – |
| kkv | 1 | 0.22 | 0.31 | – | – | – |
| CG5157 | 1 | 0.11 | 0.3 | – | – | – |
| lncRNA:CR43435 | 1 | 0.42 | -0.02 | – | – | – |
| CG13725 | 1 | 0.75 | 0.68 | – | – | – |
| ppk30 | 1 | 0.26 | 0.18 | – | – | – |
| DIP-zeta | 1 | 0.39 | 0.14 | – | – | – |
| DIP-zeta | 2 | 0.26 | 0.36 | 0.69 | 0.82 | – |
| DIP-zeta | 3 | 0.11 | -0.05 | – | – | – |
